{"source": "PubChem BioAssay AID256", "about": "(DTP/NCI, 2004)", "system": "CD2F1 mice, L1210 leukemia ip, survival T/C", "test": "NCI In Vivo Anticancer Drug Screen. Data for tumor model L1210 Leukemia (intraperitoneal) in CD2F1 (CDF1) mice", "settings": "higher T/C = longer survival", "summary_of_the_method": "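Mice carrying a transplanted tumor received test compound or vehicle alone. The value is the measurement in the treated group divided by that in the vehicle-treated control group.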", "note": "The list shows only some results of the screen, not a fair sample: it gathers tests that were run many times, whatever their T/C, doses with no T/C, and many T/C values between a quarter and a half above the control. Other doses and runs of a compound stand elsewhere. T/C is the treated group as % of the vehicle group. Some entries give survivors of the animals treated and no T/C: the source files T/C as zero there, which appears to mark a toxic dose or a test without result, not a measured value. Counts of survivors are from the toxicity check (mostly the fifth day) where no day follows; animals may have died later. Schedule codes are those of the source, read here as Q, the interval in days (D) or hours (H), X, the number of doses. Where survival is the endpoint, the PubChem record calls one and a half times the control and up active, and a quarter to a half above the control has no call in these data; cut-offs in other NCI protocols can differ. Brackets with × stand for listed records that agree. Some entries were tested several times; the values are given in rising order. Some T/C values are followed by the survivors on the day toxicity was checked, most often the fifth; without a count, all were alive then.", "data": [{"smiles": "Nc1nc(=S)c2[nH]cnc2[nH]1", "values": [{"measurement": "T/C", "setting": "T/C endpoint: mean survival time, dose: 0.38 mg/kg/injection, schedule: Q01DX009 (ip), vehicle: acid diluted with saline", "value": "143 % of control"}, {"measurement": "T/C", "setting": "T/C endpoint: mean survival time, dose: 0.43 mg/kg/injection, schedule: Q01DX009 (ip), vehicle: clinical formulation", "value": "144 % of control"}, {"measurement": "T/C", "setting": "T/C endpoint: mean survival time, dose: 0.43 mg/kg/injection, schedule: Q01DX009 (ip), vehicle: saline", "value": "138 % of control"}, {"measurement": "T/C", "setting": "T/C endpoint: mean survival time, dose: 0.5 mg/kg/injection, schedule: Q01DX005 (ip), vehicle: alkali diluted with saline", "value": "145 % of control"}, {"measurement": "T/C", "setting": "T/C endpoint: mean survival time, dose: 0.5 mg/kg/injection, schedule: Q01DX009 (ip), vehicle: acid diluted with saline", "value": "143 % of control"}, {"measurement": "T/C", "setting": "T/C endpoint: mean survival time, dose: 0.5 mg/kg/injection, schedule: Q01DX009 (ip), vehicle: alkali diluted with saline", "value": "135 % of control"}, {"measurement": "T/C", "setting": "T/C endpoint: mean survival time, dose: 0.5 mg/kg/injection, schedule: Q01DX009 (ip), vehicle: saline", "value": "143, 154, 158, 171 % of control"}, {"measurement": "T/C", "setting": "T/C endpoint: mean survival time, dose: 0.66 mg/kg/injection, schedule: Q01DX009 (ip), vehicle: saline", "value": "143 % of control"}, {"measurement": "T/C", "setting": "T/C endpoint: mean survival time, dose: 0.75 mg/kg/injection, schedule: Q01DX009 (ip), vehicle: acid diluted with saline", "value": "147 and 148 % of control"}, {"measurement": "T/C", "setting": "T/C endpoint: mean survival time, dose: 0.98 mg/kg/injection, schedule: Q01DX009 (ip), vehicle: clinical formulation", "value": "147 % of control"}, {"measurement": "T/C", "setting": "T/C endpoint: mean survival time, dose: 0.98 mg/kg/injection, schedule: Q01DX009 (ip), vehicle: saline", "value": "144 % of control"}, {"measurement": "T/C", "setting": "T/C endpoint: mean survival time, dose: 1.0 mg/kg/injection, schedule: Q01DX009 (ip), vehicle: acid diluted with saline", "value": "143 % of control"}, {"measurement": "T/C", "setting": "T/C endpoint: mean survival time, dose: 1.0 mg/kg/injection, schedule: Q01DX009 (ip), vehicle: alkali diluted with saline", "value": "131 and 147 % of control"}, {"measurement": "T/C", "setting": "T/C endpoint: mean survival time, dose: 1.0 mg/kg/injection, schedule: Q01DX009 (ip), vehicle: other", "value": "128 % of control"}, {"measurement": "T/C", "setting": "T/C endpoint: mean survival time, dose: 1.0 mg/kg/injection, schedule: Q01DX009 (ip), vehicle: saline", "value": "159, 160, 193, 195, 203 % of control"}, {"measurement": "T/C", "setting": "T/C endpoint: mean survival time, dose: 1.3 mg/kg/injection, schedule: Q01DX009 (ip), vehicle: alkali diluted with saline", "value": "147 % of control"}, {"measurement": "T/C", "setting": "T/C endpoint: mean survival time, dose: 1.8 mg/kg/injection, schedule: Q01DX009 (ip), vehicle: alkali diluted with saline", "value": "146 % of control"}, {"measurement": "T/C", "setting": "T/C endpoint: mean survival time, dose: 2.0 mg/kg/injection, schedule: Q01DX005 (ip), vehicle: water", "value": "133 % of control"}, {"measurement": "T/C", "setting": "T/C endpoint: mean survival time, dose: 2.0 mg/kg/injection, schedule: Q01DX007 (ip), vehicle: saline", "value": "142 % of control"}, {"measurement": "T/C", "setting": "T/C endpoint: mean survival time, dose: 2.0 mg/kg/injection, schedule: Q01DX009 (ip), vehicle: acid diluted with saline", "value": "139 % of control"}, {"measurement": "T/C", "setting": "T/C endpoint: mean survival time, dose: 2.0 mg/kg/injection, schedule: Q01DX009 (ip), vehicle: alkali diluted with saline, evaluated on day 30", "value": "134 and 145 % of control"}, {"measurement": "T/C", "setting": "T/C endpoint: mean survival time, dose: 2.0 mg/kg/injection, schedule: Q01DX009 (ip), vehicle: alkali diluted with saline, evaluated on day 60", "value": "142 % of control"}, {"measurement": "T/C", "setting": "T/C endpoint: mean survival time, dose: 2.0 mg/kg/injection, schedule: Q01DX009 (ip), vehicle: saline", "value": "148, 154, 162, 192, 206 % of control"}, {"measurement": "T/C", "setting": "T/C endpoint: mean survival time, dose: 2.2 mg/kg/injection, schedule: Q01DX009 (ip), vehicle: saline", "value": "143 % of control"}, {"measurement": "T/C", "setting": "T/C endpoint: mean survival time, dose: 2.25 mg/kg/injection, schedule: Q04DX003 (ip), vehicle: acid diluted with saline", "value": "133 and 136 % of control"}, {"measurement": "T/C", "setting": "T/C endpoint: mean survival time, dose: 2.5 mg/kg/injection, schedule: Q04DX003 (ip), vehicle: alkali diluted with saline", "value": "139 and 140 % of control"}, {"measurement": "T/C", "setting": "T/C endpoint: mean survival time, dose: 4.0 mg/kg/injection, schedule: Q01DX005 (ip), vehicle: water", "value": "132 % of control"}, {"measurement": "T/C", "setting": "T/C endpoint: mean survival time, dose: 4.0 mg/kg/injection, schedule: Q01DX009 (ip), vehicle: alkali diluted with saline", "value": "127 and 141 % of control"}, {"measurement": "T/C", "setting": "T/C endpoint: mean survival time, dose: 4.0 mg/kg/injection, schedule: Q01DX009 (ip), vehicle: saline", "value": "144, 157, 161, 168, 178 % of control"}, {"measurement": "T/C", "setting": "T/C endpoint: mean survival time, dose: 4.0 mg/kg/injection, schedule: Q04DX003 (ip), vehicle: alkali diluted with saline", "value": "132 % of control"}, {"measurement": "T/C", "setting": "T/C endpoint: mean survival time, dose: 4.5 mg/kg/injection, schedule: Q04DX003 (ip), vehicle: acid diluted with saline", "value": "146 % of control"}, {"measurement": "T/C", "setting": "T/C endpoint: mean survival time, dose: 5.0 mg/kg/injection, schedule: Q04DX003 (ip), vehicle: alkali diluted with saline", "value": "136, 142, 143 % of control"}, {"measurement": "T/C", "setting": "T/C endpoint: mean survival time, dose: 8.0 mg/kg/injection, schedule: Q01DX005 (ip), vehicle: alkali diluted with saline", "value": "147 % of control"}, {"measurement": "T/C", "setting": "T/C endpoint: mean survival time, dose: 8.0 mg/kg/injection, schedule: Q04DX003 (ip), vehicle: alkali diluted with saline", "value": "134 % of control"}, {"measurement": "T/C", "setting": "T/C endpoint: mean survival time, dose: 10.0 mg/kg/injection, schedule: Q04DX003 (ip), vehicle: alkali diluted with saline", "value": "135, 139, 141 % of control"}, {"measurement": "T/C", "setting": "T/C endpoint: mean survival time, dose: 16.0 mg/kg/injection, schedule: Q04DX003 (ip), vehicle: alkali diluted with saline", "value": "130 % of control [7 of 8 alive]"}, {"measurement": "T/C", "setting": "T/C endpoint: mean survival time, dose: 18.0 mg/kg/injection, schedule: Q04DX003 (ip), vehicle: acid diluted with saline", "value": "149 % of control"}, {"measurement": "T/C", "setting": "T/C endpoint: mean survival time, dose: 20.0 mg/kg/injection, schedule: Q04DX003 (ip), vehicle: alkali diluted with saline", "value": "143 % of control (2×)"}, {"measurement": "T/C", "setting": "T/C endpoint: mean survival time, dose: 32.0 mg/kg/injection, schedule: Q04DX003 (ip), vehicle: alkali diluted with saline", "value": "129 % of control"}, {"measurement": "T/C", "setting": "T/C endpoint: mean survival time, dose: 40.0 mg/kg/injection, schedule: Q04DX003 (ip), vehicle: alkali diluted with saline", "value": "129, 138, 143 % of control"}, {"measurement": "survivor count", "setting": "T/C endpoint: mean survival time, dose: 71.0 mg/kg/injection, schedule: Q01DX001 (ip), vehicle: alkali diluted with saline", "value": "2 of 10"}, {"measurement": "T/C", "setting": "T/C endpoint: median survival time, dose: 0.43 mg/kg/injection, schedule: Q01DX009 (ip), vehicle: alkali diluted with saline", "value": "136 % of control"}, {"measurement": "T/C", "setting": "T/C endpoint: median survival time, dose: 0.52 mg/kg/injection, schedule: Q01DX009 (ip), vehicle: acid diluted with saline", "value": "135 and 141 % of control"}, {"measurement": "T/C", "setting": "T/C endpoint: median survival time, dose: 0.72 mg/kg/injection, schedule: Q01DX009 (ip), vehicle: alkali diluted with saline", "value": "136 % of control"}, {"measurement": "T/C", "setting": "T/C endpoint: median survival time, dose: 1.2 mg/kg/injection, schedule: Q01DX009 (ip), vehicle: alkali diluted with saline", "value": "140 % of control"}, {"measurement": "T/C", "setting": "T/C endpoint: median survival time, dose: 1.44 mg/kg/injection, schedule: Q01DX009 (ip), vehicle: acid diluted with saline", "value": "142 % of control"}, {"measurement": "T/C", "setting": "T/C endpoint: median survival time, dose: 1.62 mg/kg/injection, schedule: Q04DX003 (ip), vehicle: alkali diluted with saline", "value": "139 % of control"}, {"measurement": "T/C", "setting": "T/C endpoint: median survival time, dose: 2.0 mg/kg/injection, schedule: Q01DX009 (ip), vehicle: alkali diluted with saline", "value": "140 % of control"}, {"measurement": "T/C", "setting": "T/C endpoint: median survival time, dose: 2.4 mg/kg/injection, schedule: Q01DX009 (ip), vehicle: acid diluted with saline", "value": "149 % of control"}, {"measurement": "T/C", "setting": "T/C endpoint: median survival time, dose: 3.33 mg/kg/injection, schedule: Q01DX009 (ip), vehicle: alkali diluted with saline", "value": "140 % of control"}, {"measurement": "T/C", "setting": "T/C endpoint: median survival time, dose: 10.0 mg/kg/injection, schedule: Q04DX003 (ip), vehicle: alkali diluted with saline", "value": "145 % of control"}, {"measurement": "T/C", "setting": "T/C endpoint: median survival time, dose: 27.0 mg/kg/injection, schedule: Q01DX001 (ip), vehicle: alkali diluted with saline", "value": "146 % of control"}, {"measurement": "T/C", "setting": "T/C endpoint: median survival time, dose: 40.0 mg/kg/injection, schedule: Q04DX003 (ip), vehicle: alkali diluted with saline", "value": "138 % of control"}, {"measurement": "T/C", "setting": "T/C endpoint: median survival time, dose: 60.0 mg/kg/injection, schedule: Q01DX001 (ip), vehicle: alkali diluted with saline", "value": "149 % of control"}, {"measurement": "T/C", "setting": "T/C endpoint: median survival time, dose: 80.0 mg/kg/injection, schedule: Q04DX003 (ip), vehicle: alkali diluted with saline", "value": "129 % of control [4 of 6 alive]"}, {"measurement": "survivor count", "setting": "T/C endpoint: median survival time, dose: 90.0 mg/kg/injection, schedule: Q01DX001 (ip), vehicle: alkali diluted with saline", "value": "4 of 10"}]}]}
